Earlier results as cited in patent US20080003684A1, “DIAGNOSTIC METHOD FOR MYOPATHY” (priority 2006, published 2008).

System: plasma ubiquinone
Conditions: clinically acceptable doses; cited from earlier work

CC(C)c1c(C(=O)Nc2ccccc2)c(-c2ccccc2)c(-c2ccc(F)cc2)n1CC[C@@H](O)C[C@@H](O)CC(=O)O [atorvastatin]
levels of plasma ubiquinone: lowered levels of plasma ubiquinone
